Literature values, collected in patent publication US8143236B2, “Chemoprotective methods” (BioNumerik Pharmaceuticals, Inc., priority 2006, dated 2012).

Conditions: in vitro; cited from earlier work

Structure (SMILES) | direct reaction with paclitaxel
O=S(=O)([O-])CCSSCCS(=O)(=O)[O-].[Na+].[Na+] [Tavocept™, disodium 2,2′-dithio-bis-ethane sulfonate] | does not directly react
O=S(=O)(O)CCS [mesna, 2-mercapto ethane sulfonate sodium, reference compound] | does not directly react
